Changes are numbered by the printed parent chain. Numbers in names are those of the source. These are yes or no findings as the source states them, for the method shown. Some binding calls cover weakened binding; strength is not graded here.

B1: Ycg1 (protein, UniProt Q06680 1-1035)
chain: MQDPDGIDINTKIFNSVAEVFQKAQGSYAGHRKHIAVLKKIQSKAVEQGYEDAFNFWFDKLVTKILPLKKNEIIGDRIVKLVAAFIASLERELILAKKQNYKLTNDEEGIFSRFVDQFIRHVLRGVESPDKNVRFRVLQLLAVIMDNIGEIDESLFNLLILSLNKRIYDREPTVRIQAVFCLTKFQDEEQTEHLTELSDNEENFEATRTLVASIQNDPSAEVRRAAMLNLINDNNTRPYILERARDVNIVNRRLVYSRILKSMGRKCFDDIEPHIFDQLIEWGLEDRELSVRNACKRLIAHDWLNALDGDLIELLEKLDVSRSSVCVKAIEALFQSRPDILSKIKFPESIWKDFTVEIAFLFRAIYLYCLDNNITEMLEENFPEASKLSEHLNHYILLRYHHNDISNDSQSHFDYNTLEFIIEQLSIAAERYDYSDEVGRRSMLTVVRNMLALTTLSEPLIKIGIRVMKSLSINEKDFVTMAIEIINDIRDDDIEKQEQEEKIKSKKINRRNETSVDEEDENGTHNDEVNEDEEDDNISSFHSAVENLVQGNGNVSESDIINNLPPEKEASSATIVLCLTRSSYMLELVNTPLTENILIASLMDTLITPAVRNTAPNIRELGVKNLGLCCLLDVKLAIDNMYILGMCVSKGNASLKYIALQVIVDIFSVHGNTVVDGEGKVDSISLHKIFYKVLKNNGLPECQVIAAEGLCKLFLADVFTDDDLFETLVLSYFSPINSSNEALVQAFAFCIPVYCFSHPAHQQRMSRTAADILLRLCVLWDDLQSSVIPEVDREAMLKPNIIFQQLLFWTDPRNLVNQTGSTKKDTVQLTFLIDVLKIYAQIEKKEIKKMIITNINAIFLSSEQDYSTLKELLEYSDDIAENDNLDNVSKNALDKLRNNLNSLIEEINERSETQTKDENNTANDQYSSILGNSFNKSSNDTIEHAADITDGNNTELTKTTVNISAVDNTTEQSNSRKRTRSEAEQIDTSKNLENMSIQDTSTVAKNVSFVLPDEKSDAMSIDEEDKDSESFSEVC
B2: Smc4 (protein, UniProt Q12267 1-1418)
chain: MSDSPLSKRQKRKSAQEPELSLDQGDAEEDSQVENRVNLSENTPEPDLPALEASYSKSYTPRKLVLSSGENRYAFSQPTNSTTTSLHVPNLQPPKTSSRGRDHKSYSQSPPRSPGRSPTRRLELLQLSPVKNSRVELQKIYDRHQSSSKQQSRLFINELVLENFKSYAGKQVVGPFHTSFSAVVGPNGSGKSNVIDSMLFVFGFRANKMRQDRLSDLIHKSEAFPSLQSCSVAVHFQYVIDESSGTSRIDEEKPGLIITRKAFKNNSSKYYINEKESSYTEVTKLLKNEGIDLDHKRFLILQGEVENIAQMKPKAEKESDDGLLEYLEDIIGTANYKPLIEERMGQIENLNEVCLEKENRFEIVDREKNSLESGKETALEFLEKEKQLTLLRSKLFQFKLLQSNSKLASTLEKISSSNKDLEDEKMKFQESLKKVDEIKAQRKEIKDRISSCSSKEKTLVLERRELEGTRVSLEERTKNLVSKMEKAEKTLKSTKHSISEAENMLEELRGQQTEHETEIKDLTQLLEKERSILDDIKLSLKDKTKNISAEIIRHEKELEPWDLQLQEKESQIQLAESELSLLEETQAKLKKNVETLEEKILAKKTHKQELQDLILDLKKKLNSLKDERSQGEKNFTSAHLKLKEMQKVLNAHRQRAMEARSSLSKAQNKSKVLTALSRLQKSGRINGFHGRLGDLGVIDDSFDVAISTACPRLDDVVVDTVECAQHCIDYLRKNKLGYARFILLDRLRQFNLQPISTPENVPRLFDLVKPKNPKFSNAFYSVLRDTLVAQNLKQANNVAYGKKRFRVVTVDGKLIDISGTMSGGGNHVAKGLMKLGTNQSDKVDDYTPEEVDKIERELSERENNFRVASDTVHEMEEELKKLRDHEPDLESQISKAEMEADSLASELTLAEQQVKEAEMAYVKAVSDKAQLNVVMKNLERLRGEYNDLQSETKTKKEKIKGLQDEIMKIGGIKLQMQNSKVESVCQKLDILVAKLKKVKSASKKSGGDVVKFQKLLQNSERDVELSSDELKVIEEQLKHTKLALAENDTNMNETLNLKVELKEQSEQLKEQMEDMEESINEFKSIEIEMKNKLEKLNSLLTYIKSEITQQEKGLNELSIRDVTHTLGMLDDNKMDSVKEDVKNNQELDQEYRSCETQDESEIKDAETSCDNYHPMNIDETSDEVSRGIPRLSEDELRELDVELIESKINELSYYVEETNVDIGVLEEYARRLAEFKRRKLDLNNAVQKRDEVKEQLGILKKKRFDEFMAGFNIISMTLKEMYQMITMGGNAELELVDSLDPFSEGVTFSVMPPKKSWRNITNLSGGEKTLSSLALVFALHKYKPTPLYVMDEIDAALDFRNVSIVANYIKERTKNAQFIVISLRNNMFELAQQLVGVYKRDNRTKSTTIKNIDILNRT
B3: Smc4 E1352Q (protein, UniProt Q12267 1-1418)
chain: B2 chain with E1352Q
B4: Smc2 (natural protein, S. cerevisiae, UniProt P38989 1-1170, looked up)
chain: MKVEELIIDGFKSYATRTVITDWDPQFNAITGLNGSGKSNILDAICFVLGIASMSTVRASSLQDLIYKRGQAGVTKASVTIVFDNTDKSNSPIGFTNSPQISVTRQVVLGGTSKYLINGHRAPQQSVLQLFQSVQLNINNPNFLIMQGKITKVLNMKPSEILSLIEEAAGTKMFEDRREKAERTMSKKETKLQENRTLLTEEIEPKLEKLRNEKRMFLEFQSTQTDLEKTERIVVSYEYYNIKHKHTSIRETLENGETRMKMLNEFVKKTSEEIDSLNEDVEEIKLQKEKELHKEGTISKLENKENGLLNEISRLKTSLSIKVENLNDTTEKSKALESEIASSSAKLIEKKSAYANTEKDYKMVQEQLSKQRDLYKRKEELVSTLTTGISSTGAADGGYNAQLAKAKTELNEVSLAIKKSSMKMELLKKELLTIEPKLKEATKDNELNVKHVKQCQETCDKLRARLVEYGFDPSRIKDLKQREDKLKSHYYQTCKNSEYLKRRVTNLEFNYTKPYPNFEASFVHGVVGQLFQIDNDNIRYATALQTCAGGRLFNVVVQDSQTATQLLERGRLRKRVTIIPLDKIYTRPISSQVLDLAKKIAPGKVELAINLIRFDESITKAMEFIFGNSLICEDPETAKKITFHPKIRARSITLQGDVYDPEGTLSGGSRNTSESLLVDIQKYNQIQKQIETIQADLNHVTEELQTQYATSQKTKTIQSDLNLSLHKLDLAKRNLDANPSSQIIARNEEILRDIGECENEIKTKQMSLKKCQEEVSTIEKDMKEYDSDKGSKLNELKKELKLLAKELEEQESESERKYDLFQNLELETEQLSSELDSNKTLLHNHLKSIESLKLENSDLEGKIRGVEDDLVTVQTELNEEKKRLMDIDDELNELETLIKKKQDEKKSSELELQKLVHDLNKYKSNTNNMEKIIEDLRQKHEFLEDFDLVRNIVKQNEGIDLDTYRERSKQLNEKFQELRKKVNPNIMNMIENVEKKEAALKTMIKTIEKDKMKIQETISKLNEYKRETLVKTWEKVTLDFGNIFADLLPNSFAKLVPCEGKDVTQGLEVKVKLGNIWKESLIELSGGQRSLIALSLIMALLQFRPAPMYILDEVDAALDLSHTQNIGHLIKTRFKGSQFIVVSLKEGMFANANRVFRTRFQDGTSVVSIM

The target of the assay is T1, Brn1 (S. cerevisiae) (UniProt P38170).
T1 sequence: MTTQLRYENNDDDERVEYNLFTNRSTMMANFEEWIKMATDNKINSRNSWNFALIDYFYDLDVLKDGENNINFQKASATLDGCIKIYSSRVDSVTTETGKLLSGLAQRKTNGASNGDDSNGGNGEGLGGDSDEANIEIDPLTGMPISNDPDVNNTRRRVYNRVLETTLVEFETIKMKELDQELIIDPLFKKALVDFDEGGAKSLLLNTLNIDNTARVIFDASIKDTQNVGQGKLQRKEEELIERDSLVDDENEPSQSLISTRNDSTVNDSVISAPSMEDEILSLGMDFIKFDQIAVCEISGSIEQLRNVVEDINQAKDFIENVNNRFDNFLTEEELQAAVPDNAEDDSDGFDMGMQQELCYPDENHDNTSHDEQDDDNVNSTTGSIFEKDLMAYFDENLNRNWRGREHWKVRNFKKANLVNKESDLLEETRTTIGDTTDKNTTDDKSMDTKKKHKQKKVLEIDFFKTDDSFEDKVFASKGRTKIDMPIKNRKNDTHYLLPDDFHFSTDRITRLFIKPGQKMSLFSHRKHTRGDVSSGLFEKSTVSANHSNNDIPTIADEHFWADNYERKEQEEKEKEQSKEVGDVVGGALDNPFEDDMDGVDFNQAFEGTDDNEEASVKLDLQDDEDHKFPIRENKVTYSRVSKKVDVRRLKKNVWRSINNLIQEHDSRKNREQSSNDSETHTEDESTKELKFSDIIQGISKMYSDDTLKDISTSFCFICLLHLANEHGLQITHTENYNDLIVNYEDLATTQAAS
Nature of the assay: tandem affinity co-purification.
As to B1, the binding entry is recorded as “binds”.

As to B2, the binding entry is recorded as “binds”. The value for B3 was “binds”; that for B4 was “binds”.
